Assay results published in patent US9144569B2, “Methods of administering an aromatase inhibitor, prostaglandin and GnRH for regulating ovulation in cattle” (UNIVERSITY OF SASKATCHEWAN, priority 2010, dated 2015).
“And” between values parts separate entries of the source, which are not always exact repeats. Equal values may be shown once. At least one read-out could not be matched to a standard name with certainty. Marks after values point to notes of the source that are not given here.

Experiment: Example I: plasma letrozole concentration (LC/MS/MS) and non-compartmental pharmacokinetics after single iv dose
Assay type: in vivo, cattle
Method: Heifers in which a CL was detected during the initial examination were given […] cloprostenol (PGF, Estrumate™, Schering-Plough Animal Health, Pointe-Claire, QC, Canada) intramuscularly (im) to induce regression of the CL and to synchronize ovulation. Heifers were examined daily by transrectal ultrasonography to detect ovulation. Transvaginal ultrasound-guided follicular aspiration of follicles ≧5 mm was performed five to eight days after ovulation to synchronize wave emergence. Heifers were examined daily by transrectal ultrasonography to detect follicular wave emergence, which was expected 1 to 1.5 days after follicular ablation. Four days after follicular ablation (approximately 2.5 days after follicular wave emergence), and at the time follicular dominance becomes apparent, heifers were assigned randomly to the following treatment groups and given a single intravenous dose of 1) 500 μg/kg of letrozole (high dose group, n=9), 2) 250 μg/kg of letrozole (medium dose group, n=10), 3) 125 μg/kg of letrozole (low dose group, n=10), or 4) 20 ml of phosphate buffered saline (PBS control group, n=10). For practical purposes, the dose of letrozole was calculated based on an average weight of 400 kg for all heifers. The average oral dose used in women (2.5-5 mg per day for 5 days) was used to estimate the medium dose for cattle. The high and low doses were set as double and half the medium dose, respectively. The day of treatment was defined as Day 0. For intravenous injection, letrozole was prepared in 95% ethanol at a final concentration of 5 mg per ml, resulting in an injection volume of 10-40 ml. The experiment was performed in four replicates (n=2-3 per group per replicate) and each heifer was used only once.
Blood samples were collected by jugular or coccygeal venipuncture into 10 ml heparinized vacuum tubes (Becton Dickinson Vacutainer Systems, Franklin Lakes, N.J., USA). Blood samples were collected at 0, 0.25, 0.5, 1, 1.5, 2, 3, 4, 6, 8, 12, 24, 36, 48 hours post-treatment using an indwelling jugular catheter as previously described and daily thereafter to the first post-treatment ovulation. Blood samples were centrifuged at 1500×g for 20 minutes; plasma was separated and stored in plastic tubes at −20° C.
Plasma concentrations of letrozole were determined using high performance liquid chromatography tandem mass spectrometry (LC/MS/MS). To extract letrozole from the samples, 250 μL of a buffer solution (0.1M ammonium) were added to 250 μL of plasma followed by the addition of 5 mL of methyl t-butyl ether (MTBE) and vortexed for 15 seconds. The organic layer was removed by pipetting and transferred to a fresh 15 mL plastic tube. […] Chromatograms were recorded using multiple reaction monitoring (MRM) mode, where at least two transitions per-analyte were monitored. […]

N#Cc1ccc(C(c2ccc(C#N)cc2)n2cncn2)cc1 [Letrozole, letrozole]
Volume of distribution (Vz/f) (125 μg/kg single iv, n=9): 566.2 ± 43.95^a mL/kg
Volume of distribution (Vz/f) (250 μg/kg single iv, n=9): 592.9 ± 66.06^a mL/kg
Volume of distribution (Vz/f) (500 μg/kg single iv, n=9): 745.7 ± 7.35^a mL/kg
Volume of distribution (Vz/f) (doses combined): 635 mL/kg and 634.9 ± 39.54 mL/kg
